# Test results from PubChem BioAssay AID504467 (National Center for Advancing Translational Sciences (NCATS), 2011).
# Hit rate of the full screen: of about 330,000 compounds, about 7,700 (2.3%) were called active. The inconclusive results got no clear call from the source; some entries with a clear call stand among them for comparison. Calls come from the whole dose curve; as a rule, active = well fitted inhibition curve with a large enough effect; inconclusive = small, poorly fitted or top-dose-only effect, or effect the other way; inactive = flat fitted curve, though single readings scatter. A potency beside an inconclusive call is a rough fit, not a confirmed value.
# Test: qHTS screen for small molecules that inhibit ELG1-dependent DNA repair in human embryonic kidney (HEK293T) cells expressing luciferase-tagged ELG1; note: nearly all actives have a fitted effect of over 55% in size
# Details: HEK293T ELG1-luciferase reporter, luminescence, 16 h, DNA damage induced by 5-fluorouridine; series mostly up to 46.1 µM
# Method in brief: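 In this reporter screen, reduction of luminescence relative to DMSO vehicle indicated activity. Compounds and 5-fluorouridine were added together to 2,000 cells per well, incubated for 16 hr at 37 °C, then developed with ONE-Glo.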
# Potency is the fitted concentration of half-maximal effect.
row,SMILES,Potency
1,COc1ccc(NC(=O)CSc2nnc(-c3cccc(O)c3)o2)cc1,"inconclusive: 29.1 µM [activator, single point]"
2,COc1ccccc1C(=O)Nc1ccc(OCC(=O)N2CCCCC2)cc1,"inconclusive: 20.6 µM [activator, single point]"
3,O=C(Nc1ccccc1)C1COc2ccccc2O1 (stereo not drawn),"inconclusive: 13 µM [activator, partial curve, poor fit]"
4,CC1=NN(c2ccc(F)cc2)C(=O)C1C(c1cccc(O)c1)c1c(C)[nH]n(-c2ccc(F)cc2)c1=O (stereo not drawn),"inconclusive: 18.4 µM [activator, partial curve, poor fit]"
5,O=S(=O)(c1ccccc1)N1CCCc2ccccc21,inactive
6,CCN(CC)CCCNC(=O)/C=C/C(=O)O,inactive
7,CCCC(=O)N1CCN(c2ccc(NC(=S)NC(=O)CC)cc2)CC1,inactive
8,COc1ccc(/C=c2/sc3n(c2=O)NC2(c4ccccc4)N(C)C(=O)N(C)C2(c2ccccc2)N=3)cc1 (stereo not drawn),"inconclusive: 20.6 µM [activator, single point]"
9,N#Cc1c(OCC(=O)c2ccccc2)nc2c(c1-c1ccco1)CCc1ccccc1-2,"inconclusive: 10.3 µM [inhibitor, partial curve, poor fit]"
10,Cn1c(N2CCCC2)nc2c1c(=O)n(Cc1ccc(Cl)cc1)c(=O)n2C,active: 20.6 µM
11,COc1cc(/C=N/Nc2nc(Nc3ccc(C)cc3)nc(-n3nc(C)cc3C)n2)cc(OC)c1OC,"inconclusive: 5.17 µM [inhibitor, single point]"
12,COc1ccc(O)c(/C=N/NC(=O)c2c(C)nnn2-c2nonc2N)c1,"inconclusive: 3.66 µM [inhibitor, single point]"
13,Cc1c(/C=N\NC(=O)c2csc3ccccc23)cnn1C,inactive
14,Cc1nc(SCc2nc3ccc(C(=O)c4ccccc4)cc3[nH]2)c2oc3ccccc3c2n1,active: 4.61 µM
15,COc1ccc(/C=N/NC(=O)c2ccccc2O)cc1Cn1cc(Cl)cn1,inactive
16,CCn1c(O)c(/C=N/N=C/c2ccc(OC)cc2)c2cc(C3=NNC(=O)CC3)ccc21,inactive
17,O=C(CN1CCN(CC(=O)Nc2ccccc2Cl)CC1)Nc1ccc2c(c1)OCCO2,"inconclusive: 29.1 µM [inhibitor, single point]"
18,CCOc1ccc(S(=O)(=O)Nc2cccc(OC)c2)cc1,"inconclusive: 13 µM [inhibitor, partial curve]"
19,COc1c(C)cc(C(=O)C2CCCN(C(=O)c3snnc3C)C2)cc1C (stereo not drawn),"inconclusive: 29.1 µM [inhibitor, single point]"
20,Cc1cc(C)n2nc(C(=O)Nc3cccc(S(=O)(=O)N4CCOCC4)c3)nc2n1,inactive
21,O=C(Cc1ccc(Cl)cc1)NC(=S)Nc1ccccc1O,"inconclusive: 25.9 µM [activator, partial curve, poor fit]"
22,COc1ccc2cc3cc(C(=O)NCc4ccc5c(c4)OCO5)oc3nc2c1,inactive
23,O=C(NCc1cccs1)c1nc2c(nnn2Cc2ccccc2Cl)c(=O)[nH]1,active: 16.4 µM

# Arranged by heavy-atom count (low to high): part of the list above.
row,SMILES,Potency
6,CCN(CC)CCCNC(=O)/C=C/C(=O)O,inactive
5,O=S(=O)(c1ccccc1)N1CCCc2ccccc21,inactive
21,O=C(Cc1ccc(Cl)cc1)NC(=S)Nc1ccccc1O,"inconclusive: 25.9 µM [activator, partial curve, poor fit]"
7,CCCC(=O)N1CCN(c2ccc(NC(=S)NC(=O)CC)cc2)CC1,inactive
12,COc1ccc(O)c(/C=N/NC(=O)c2c(C)nnn2-c2nonc2N)c1,"inconclusive: 3.66 µM [inhibitor, single point]"
2,COc1ccccc1C(=O)Nc1ccc(OCC(=O)N2CCCCC2)cc1,"inconclusive: 20.6 µM [activator, single point]"
22,COc1ccc2cc3cc(C(=O)NCc4ccc5c(c4)OCO5)oc3nc2c1,inactive
20,Cc1cc(C)n2nc(C(=O)Nc3cccc(S(=O)(=O)N4CCOCC4)c3)nc2n1,inactive
9,N#Cc1c(OCC(=O)c2ccccc2)nc2c(c1-c1ccco1)CCc1ccccc1-2,"inconclusive: 10.3 µM [inhibitor, partial curve, poor fit]"
14,Cc1nc(SCc2nc3ccc(C(=O)c4ccccc4)cc3[nH]2)c2oc3ccccc3c2n1,active: 4.61 µM
11,COc1cc(/C=N/Nc2nc(Nc3ccc(C)cc3)nc(-n3nc(C)cc3C)n2)cc(OC)c1OC,"inconclusive: 5.17 µM [inhibitor, single point]"
8,COc1ccc(/C=c2/sc3n(c2=O)NC2(c4ccccc4)N(C)C(=O)N(C)C2(c2ccccc2)N=3)cc1 (stereo not drawn),"inconclusive: 20.6 µM [activator, single point]"

# Following part:

row,SMILES,Potency
1,Cc1noc(C)c1NC(=O)N(C)C[C@H]1Oc2ccc(NS(=O)(=O)c3c(C)noc3C)cc2C(=O)N([C@H](C)CO)C[C@@H]1C,"inconclusive: 13 µM [activator, partial curve]"
2,CC(C)(C)c1ccc(OCc2ccc(C(=O)N3CCOCC3)o2)cc1,"inconclusive: 3.26 µM [activator, single point]"
3,Cc1c(C#N)c(NC(=O)c2cccc(Cl)c2)n(Cc2ccccc2)c1C,"inconclusive: 13 µM [inhibitor, single point]"
4,Cc1ccc(-n2cc(CN(C)Cc3ncc[nH]3)c(-c3cccc(C)c3)n2)cc1,"inconclusive: 16.4 µM [inhibitor, single point]"
5,COc1ccc(OC)c(C(=O)NC2CC(C)(C)Cc3c2cnn3-c2ccccc2)c1 (stereo not drawn),"inconclusive: 0.517 µM [inhibitor, full curve, poor fit]"
6,CC1=NN(C(N)=S)C(=O)C1N=Nc1ccccc1C (stereo not drawn),"inconclusive: 18.4 µM [activator, single point]"
7,Cc1ccccc1NC(=O)N1CCCC1C(=O)NCc1cccs1 (stereo not drawn),"inconclusive: 20.6 µM [activator, partial curve, poor fit]"
8,O=C(CSc1ccccc1)Nc1ccc2c(c1)OCO2,"inconclusive: 18.3 µM [activator, partial curve]"
9,O=C(CN1C2CCCC1CC(NC(=O)c1ccccc1)C2)Nc1nccs1 (stereo not drawn),"inconclusive: 16.4 µM [inhibitor, single point]"
10,CCOc1ccc(S(=O)(=O)N2CCCCC2)cc1NC(=O)Cc1ccccc1,"inconclusive: 13 µM [inhibitor, partial curve, poor fit]"
11,COc1ccc(C(=O)Nc2ccc(S(=O)(=O)Nc3nccc(C)n3)cc2)cc1OC,"inconclusive: 20.6 µM [activator, single point]"
12,Cc1ccnc(NC(=O)CNC(=O)c2ccco2)c1,"inconclusive: 25.9 µM [activator, single point]"
13,Nc1cc(-c2ccc(Br)cc2)nc2cc(-c3ccccc3)nn12,"inconclusive: 13 µM [activator, partial curve]"
14,COc1ccc(C(CNC(=O)Nc2ccccc2)N2CCN(C)CC2)cc1 (stereo not drawn),"inconclusive: 29.1 µM [activator, single point]"
15,O=C(COCC(=O)N1CCOCC1)N1CCOCC1,"inconclusive: 2.91 µM [inhibitor, single point]"
16,CCCc1cc(-c2n[nH]c(=S)n2CC(C)C)cs1,inactive
17,CCOc1ccc2nc(N3CCC(C(=O)N4CCN(C(=O)c5ccco5)CC4)CC3)sc2c1,"inconclusive: 29.1 µM [inhibitor, single point]"
18,O=C(NCc1ccco1)c1cc([N+](=O)[O-])ccc1N1CCCCC1,"inconclusive: 18.4 µM [inhibitor, single point]"
19,C=CCn1c(P(=O)(O)c2ccccc2)nc2ccccc21,inactive
20,COc1ccc2nc(C)cc(Sc3nc4ccccc4s3)c2c1,active: 5.17 µM
21,Cc1cccc(N2CCN(CC(=O)Nc3ccc(S(=O)(=O)N4CCOCC4)cc3)CC2)c1C,active: 14.6 µM
22,Cc1cc(C)c(S(=O)(=O)N2CCN(CCN3C(=O)c4cccc5cccc(c45)C3=O)CC2)cc1[N+](=O)[O-],active: 3.66 µM
23,Cc1ccc2cc(CCNC(=O)c3ccc(S(=O)(=O)N4CCOCC4)cc3)c(=O)[nH]c2c1C,"inconclusive: 20.6 µM [inhibitor, partial curve]"

row,SMILES,Potency
1,CCOC(=O)CSc1nnc2n1C(C)(C)Cc1ccccc1-2,inactive
2,Brc1ccc(-c2n(-c3ccccn3)c3ccccc3[n+]2-c2ccccn2)cc1,"inconclusive: 20.6 µM [inhibitor, single point]"
3,CCOc1ccc(NC(=O)CN(C2CCCCC2)S(C)(=O)=O)cc1,"inconclusive: 13 µM [inhibitor, single point]"
4,COC(=O)[C@@]12CCCCN1[C@H](c1ccc(-c3ccc4c(c3)OCO4)cc1)[C@H]1C(=O)N(C)C(=O)[C@H]12,"inconclusive: 18.3 µM [inhibitor, partial curve]"
5,CN1C(=O)C(=O)/C(=C(/O)c2ccc(Br)cc2)C1c1ccc(Cl)cc1 (stereo not drawn),"inconclusive: 0.112 µM [inhibitor, full curve, poor fit]"
6,CNc1ccc([N+](=O)[O-])cc1-c1nc2ccccc2[nH]c1=O,"inconclusive: 29.1 µM [activator, single point]"
7,CCOc1ccc(S(=O)(=O)N(CC)CC(=O)NCc2cccnc2)cc1,inactive
8,CCCNC(=O)N1CCCC(C(=O)c2cccc(Cl)c2)C1 (stereo not drawn),inactive
9,O=C1N=C(N2CCCCC2)SC1=C1CCCC1,"inconclusive: 13 µM [activator, partial curve]"
10,COc1ccc(CCNC(=O)C2CCC(=O)N(C3CC3)C2)c(OC)c1 (stereo not drawn),inactive
11,Cc1cccc(C(=O)N[C@H](C(=O)Nc2nc3ccccc3[nH]2)C(C)C)c1,"inconclusive: 6.51 µM [activator, full curve, poor fit]"
12,CCn1c2ccccc2c2cc(/C=N/NC(=O)c3ccncc3)ccc21,"inconclusive: 29.1 µM [inhibitor, single point]"
13,COc1ccccc1NC(=O)c1c(O)c2ccccc2[nH]c1=O,"inconclusive: 7.3 µM [activator, partial curve]"
14,CCCn1nnc(NC(=O)c2cc3ccccc3o2)n1,"inconclusive: 18.4 µM [activator, partial curve]"
15,O=C(CCl)NCc1c(Cl)cccc1-n1cccc1,"inconclusive: 29.1 µM [inhibitor, single point]"
16,COC(=O)CNC(c1ccccc1)c1cc(Br)ccc1N (stereo not drawn),inactive
17,COC(=O)c1cc(-c2ccc(Cl)cc2)n[nH]1,"inconclusive: 32.6 µM [activator, partial curve, poor fit]"
18,Cc1cccc(Nc2nnc(SCC(=O)NC3CCCc4ccccc43)s2)c1 (stereo not drawn),"inconclusive: 23.1 µM [inhibitor, partial curve]"
19,CCCCCCOC(=O)C(C#N)c1nc2ccccc2nc1N1CCN(C)CC1 (stereo not drawn),"inconclusive: 23.1 µM [inhibitor, single point]"
20,COc1ccc(OC)c(NC(=O)Cc2coc3ccc4ccccc4c23)c1,"inconclusive: 32.6 µM [inhibitor, partial curve, poor fit]"
21,N/C(=N\OC(=O)c1ccco1)c1cccc(Br)c1,"inconclusive: 9.2 µM [activator, partial curve]"
22,CC(C)Sc1nnc(CNC(=O)C23CC4CC(CC(C4)C2)C3)n1Cc1ccccc1,inactive

# A different layout for some results above:
row	SMILES	Potency
19	CCCCCCOC(=O)C(C#N)c1nc2ccccc2nc1N1CCN(C)CC1 (stereo not drawn)	inconclusive: 23.1 µM [inhibitor, single point]
20	COc1ccc(OC)c(NC(=O)Cc2coc3ccc4ccccc4c23)c1	inconclusive: 32.6 µM [inhibitor, partial curve, poor fit]
